Results of single-concentration screens

Sequences of proteins named here, by UniProt entry; tags and fusion partners are left off.
UniProt P9WPC5, whole entry: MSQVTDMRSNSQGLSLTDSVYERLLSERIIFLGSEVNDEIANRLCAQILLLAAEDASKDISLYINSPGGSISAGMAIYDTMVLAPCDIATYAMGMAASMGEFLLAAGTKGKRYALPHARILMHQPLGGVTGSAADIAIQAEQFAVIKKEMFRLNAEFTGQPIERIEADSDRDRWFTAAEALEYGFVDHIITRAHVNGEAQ
UniProt P9WPC3, whole entry partner: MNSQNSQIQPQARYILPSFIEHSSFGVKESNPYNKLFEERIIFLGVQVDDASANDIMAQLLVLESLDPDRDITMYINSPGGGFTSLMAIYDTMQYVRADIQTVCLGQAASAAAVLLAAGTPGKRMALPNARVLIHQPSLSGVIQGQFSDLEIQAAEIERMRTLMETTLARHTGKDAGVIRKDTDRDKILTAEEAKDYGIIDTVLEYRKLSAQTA
UniProt P9WNZ1, whole entry: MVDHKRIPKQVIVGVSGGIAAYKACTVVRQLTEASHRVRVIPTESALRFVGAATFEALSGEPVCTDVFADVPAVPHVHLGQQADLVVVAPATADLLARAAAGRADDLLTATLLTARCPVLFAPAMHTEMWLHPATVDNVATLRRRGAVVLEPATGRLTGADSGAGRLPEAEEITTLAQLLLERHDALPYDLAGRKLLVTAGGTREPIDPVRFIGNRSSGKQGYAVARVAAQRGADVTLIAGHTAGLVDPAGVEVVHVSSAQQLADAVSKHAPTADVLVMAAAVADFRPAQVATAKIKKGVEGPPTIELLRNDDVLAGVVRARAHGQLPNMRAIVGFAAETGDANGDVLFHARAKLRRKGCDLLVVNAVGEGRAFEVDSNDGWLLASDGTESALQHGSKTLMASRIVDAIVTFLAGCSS

From ChEMBL document CHEMBL3988442, “University of Dundee, Small-Polar-MMV Screening Library” (2021).

ClpP1P2: 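Protease assay of ClpP1P2, read by the AMC dye that it sets free. Target: ClpP1P2, Mycobacterium tuberculosis (UniProt P9WPC5 and UniProt P9WPC3). Concentration: 50 µM. Higher reads as stronger inhibition, judged from the few compounds that gave an IC50. Most other retested compounds had strongly negative values. Of about 69,000 compounds tested this way, about 10 (0.015%) reached 50% or more in at least one test.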
CoaBC: 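Enzyme assay of CoaBC with a phosphate dye (Biomol Green) read at 650 nm. Target: Coenzyme A biosynthesis protein CoaBC, Mycobacterium tuberculosis (UniProt P9WNZ1). Concentration: 30 µM. Higher reads as stronger inhibition, judged from the few compounds that gave an IC50. Most strong results did not repeat in a second test. Of about 67,000 compounds tested this way, about 40 (0.06%) reached 50% or more in at least one test.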
Toxoplasma: 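Assay of Toxoplasma gondii numbers, read through their beta-galactosidase reporter with a colour substrate. Compounds at 10 µM. The record gives no direction; the compounds picked for IC50 retests had high values, so higher reads as fewer parasites. Of about 67,000 compounds tested this way, about 260 (0.38%) reached 50% or more in at least one test.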

The filed quantity is “Percent Effect” (%). The record does not define 0% and 100%; most values in the screen are far below 50% and negative numbers occur (in some assays of this library far below -100). This is an unselected part of the compounds tested. A dash means the value is not listed here; it may have been measured.

| SMILES | ClpP1P2 | CoaBC | Toxoplasma |
|---|---|---|---|
| `Cc1ccc(C(CCNCCCN(C)C)C2CCOC(C)(C)C2)cc1` (stereo unspecified) | 12.21% | -0.4603% | - |
| `O=C(CC1CC1)N1CCn2cc(Cn3cccn3)nc2C1` | 1.355% | 1.5% | - |
| `O=C(NCCCn1ccnc1)C1CCC(=O)N1Cc1cccs1` (stereo unspecified) | 10.63% | -1.119% | 18.87% |
| `CN(C)C(=O)CN1CCCC(c2nccnc2-c2cccc(Cl)c2)C1` (stereo unspecified) | -11.44% | 7.022% | 1.48% |
| `[H][C@]12CC[C@](O)(CC1)C(CN1CCOCC1)N2Cc1ccc(F)cc1` (stereo partly specified) | - | - | -23.24% |
| `COC1COC2(CCN(C(=O)c3cocn3)CC2)C1` (stereo unspecified) | 5.726% | 11.27% | 10.16% |
| `Cc1cc(C(=O)NCC(C)C)c2c(C3CCCN3)noc2n1` (stereo unspecified) | 0.3209% | -5.526% | 0.4264% |
| `O=S1(=O)C[C@@H]2[C@H](C1)N(Cc1ccc3ccccc3c1)CCN2CC1CC1` | -0.7142% | 2.571% | - |
| `Cc1cccc(C(=O)N2CC[C@H]3C[C@@H](C)O[C@@H]3C2)n1` | -12.47% | 4.01% | - |
| `COCCN1CCCC12CCN(Cc1cccnc1OC)CC2.O=C(O)C(F)(F)F.O=C(O)C(F)(F)F` | - | - | 1.888% |
| `Cn1ncc(Cl)c1C(=O)N1CCc2nc3sccc3c(=O)n2CC1` | 1.376% | -4.079% | 8.437% |
| `O=C(NCCCn1cccn1)N1CCCC1c1ccsc1` (stereo unspecified) | 10.05% | -4.132% | 10.93% |
| `Cc1cccc(C2CCCCCN2C(=O)c2cn(CC(N)=O)nn2)c1` (stereo unspecified) | 4.102% | -0.6711% | 6.586% |
| `NC(=O)N1CCCN(CCc2nc(-c3cccc(Cl)c3)no2)CC1` | -2.461% | 7.495% | 10.13% |
| `CC(C)C[C@@H]1N[C@H](C(=O)NCC2CC2)Cc2c[nH]c3cccc1c23` | -6.033% | 10.82% | 1.625% |
| `CCOc1cccc2c1OCC(C(=O)NS(=O)(=O)c1cccs1)=C2` | 0.9272% | 6.335% | -1.248% |
| `Cc1ccoc1C(=O)NCc1ccnc(OCC(F)(F)F)c1` | -26.63% | 7.731% | -11.27% |
| `Cc1noc(C2(C)CCN(C(=O)C(C)C)CC2)n1` | -20.18% | 6.888% | - |
| `CCc1noc(C(C)N2CCN(c3ncnc4sccc34)CC2)n1` (stereo unspecified) | -5.001% | 2.871% | 4.118% |
| `CC(=O)N1CCc2[nH]cnc2C12CCN(C(=O)Cc1ccccn1)CC2` | -15.06% | 0% | -17.72% |
| `COc1ccc(CC(=O)N2CC[C@@H]3[C@H](CC2)N(C)CCS3(=O)=O)cc1` | 4.461% | 10.28% | - |
| `Cc1nc(C(=O)N(Cc2c(C)nn(C)c2C)C(C)C)cs1` | 2.781% | 0% | 4.281% |
| `COCCCNc1cc(C(=O)N2CCOCC2)ccc1C` | 9.83% | 7.673% | -14.14% |
| `[H][C@@]12CCN(Cc3cccs3)C[C@@]1([H])O[C@H](c1ccnc(C)n1)C2` | - | - | -9.07% |
| `O=C(O)C(F)(F)F.[H][C@@]12COC[C@]1(CNC(=O)c1ccsc1)CN(Cc1cc(C)on1)C2` | - | - | 0.7729% |
| `Cc1cc(C(=O)N2CCC[C@]3(C[C@@H](OCC4CC4)CO3)C2)no1` | 1.814% | 4.75% | 6.353% |
| `CCC(CC)C(CNC(=O)Nc1ccc(C)cc1)N1CCOCC1` (stereo unspecified) | 14.56% | 7.969% | - |
| `Cc1ccc(S(N)(=O)=O)cc1C(=O)N1C[C@@H](CN(C)C)[C@@H](CO)C1` | 0.4366% | 5.934% | 7.249% |
| `COCCCOC1CN(C(=O)c2[nH]nc3c2CCCC3)C1` | -20.74% | 2.635% | -10.68% |
| `O=C(CC1CC1)N1CCC2(CC1)C(=O)NCCN2Cc1ccccc1` | -8.694% | 2.545% | 2.452% |
| `CCOc1ccccc1CN(C)C(=O)CN1C(=O)OC[C@@H]1C(C)C` | -17.84% | -0.5834% | 17.28% |
| `Cc1cnccc1CNCc1ccc(OC23CCCN(CC2)C3)cc1` (stereo unspecified) | 1.083% | -12.94% | 2.801% |
| `O=C(O)C(F)(F)F.O=C(O)C(F)(F)F.[H][C@]12CN(Cc3ccncc3)C(=O)[C@@]1([H])CN(C1CCOCC1)C2` | - | - | 12.97% |
| `CC(=O)N1CCC(NC(=O)c2cc(Cl)ccc2O)CC1` | -5.363% | 12.7% | -6.409% |
| `CC(=O)N1CCC(C(=O)N2CCC2c2nc(-c3ccc(C)s3)no2)CC1` (stereo unspecified) | -0.7909% | -7.022% | 27.13% |
| `CN(CCC#N)C(=O)CSc1cc(F)ccc1F` | 1.701% | 14.68% | -3.823% |
| `CC(C)CSc1ccc(-n2cccn2)nn1` | 3.795% | 1.631% | -4.109% |
| `Cc1nc(C)c(C(=O)N2CCc3cc(F)ccc3C2C)o1` (stereo unspecified) | -3.061% | 2.857% | 11.49% |
| `[H][C@]12CCN(C(=O)COC)[C@@]1([H])CC[C@H](COCC1CCOCC1)O2` | - | - | -2.841% |
| `Cc1ccc(CN2CCC3(CC2)CCN(C(=O)c2cccnc2)C3)o1` | -1.179% | 1.481% | - |
| `O=C(O)C(F)(F)F.O=C(O)C(F)(F)F.[H][C@@]12CCC(=O)N(Cc3cccc(C)n3)[C@]1([H])CCN2Cc1ccc(F)cc1` | - | - | -11.5% |
| `NC(=O)CCC1CCCN(c2ccnc3cc(F)ccc23)C1` (stereo unspecified) | -1.675% | 4.126% | 24.49% |
| `CCC(=O)N1CCN(C(=O)NCCOc2ccc3c(c2)CCC3)CC1` | -21.52% | -1.579% | 7.433% |
| `[H][C@@]12COC[C@]1(CNS(C)(=O)=O)CN(C(=O)C1CC(F)(F)C1)C2` | - | - | -26.64% |
| `O=c1oc(-c2ccc(F)cc2)nn1CN1CCCCC1` | -9.887% | -5.806% | -5.486% |
| `COc1ccccc1OCC(=O)N1CCN(Cc2noc(C)n2)CC1` | 2.809% | 13.22% | -2.392% |
| `Cc1ncsc1C(=O)NCCOc1ncc(Cl)cc1Cl` | 2.962% | -2.692% | -4.95% |
| `CC(C)c1ccc(C(C)N2CCCN(C(N)=O)CC2)cc1` (stereo unspecified) | 7.581% | -3.255% | 8.773% |
| `O=C(c1cccc(S(=O)(=O)NCCc2nccs2)c1)N1CCOCC1` | -4.648% | -3.498% | 6.245% |
| `Cc1nc(CN2CCCC(N(C)Cc3nnc(C4CC4)o3)C2)no1` (stereo unspecified) | 14.9% | 9.719% | 1.274% |
| `[H][C@@]12CS(=O)(=O)C[C@]1([H])N(C(=O)c1snnc1C)CCN2CC1CC1` | - | - | -10.27% |
| `CN(Cc1ccccn1)C(=O)c1cc(CN2CCC(O)CC2)on1` | 0.795% | 9.671% | -2.363% |
| `Cc1ccc(CN(C(=O)NCC2CCS(=O)(=O)C2)C2CC2)o1` (stereo unspecified) | 6.912% | 0.994% | -11.1% |
| `CC(=O)N1CCC(c2cncc(Oc3ccccc3)n2)CC1` | 7.962% | 3.627% | -0.6101% |
| `CC(=O)N1CCC2(CCN(Cc3ccccn3)C2=O)C1.O=C(O)C(F)(F)F` (stereo unspecified) | - | - | 3.853% |
| `O=C(NCC1OCCc2cn(CC3CCOCC3)nc21)c1ccsc1.O=C(O)C(F)(F)F` (stereo unspecified) | - | - | -0.9029% |
| `O=C(O)C(F)(F)F.[H][C@@]12CN(C(=O)CCOC)C[C@]1([H])C(=O)N(Cc1cccnc1)C2` | - | - | -4.327% |
| `O=C(O)C(F)(F)F.[H][C@@]12CCN(C3CCOCC3)C[C@]1([H])O[C@@H](C(=O)N(C)C)C2` | - | - | 13.15% |
| `CC1=C(C(=O)N(C)Cc2n[nH]c3c2CCCCC3)C(C)NC(=O)N1` (stereo unspecified) | 17.83% | 4.04% | -13.43% |
| `O=C(Nc1ccccn1)c1nc(N2CCCC2)ncc1Cl` | 5.754% | -8.669% | -21.19% |
| `COc1cccc(CNCc2c(C)nn(C)c2N(C)C)c1` | -18.77% | 6.65% | -4.028% |
| `CN(C)c1ccc(C(=O)NCC2(O)CCOCC2)cc1` | -8.164% | 5.33% | -1.154% |
| `CN(Cc1cccnc1)C[C@@H]1OC[C@H]2CN(Cc3ccoc3)CC[C@H]21` | -1.483% | -7.009% | - |
| `CSc1ncnc(NCc2ccco2)c1C#N` | 1.324% | 8.642% | -23.58% |
| `Cn1nnc2c1C(COCc1ccccn1)CN(Cc1ccoc1)C2.O=C(O)C(F)(F)F.O=C(O)C(F)(F)F` (stereo unspecified) | - | - | -0.654% |
| `Cc1cccc(CN2CC[C@@H]3[C@@H](CO[C@H]3CNc3ncccn3)C2)n1` | -21.63% | 0.8631% | - |
| `CC(C)COC1CCN(C(=O)c2ccc(C(F)(F)F)[nH]c2=O)CC1` | 2.659% | 2.236% | 24.23% |
| `N#Cc1ccc(CN2CCCCC2Cn2cccn2)cc1` (stereo unspecified) | 4.543% | 3.827% | 5.648% |
| `CC(C)OCCN(C)CC(c1cccs1)N1CCOCC1` (stereo unspecified) | 15.46% | 1.945% | 0.885% |
| `Cc1cc(C(F)(F)F)cc(=O)n1Cc1nc(C(C)C)no1` | 1.25% | 8.642% | 6.898% |
| `Cn1cc(CN2CCc3onc(COc4cccnc4)c3C2)cn1` | 11.79% | 4.711% | - |
| `CC(=O)N1CCCN(C(=O)NCCCNS(C)(=O)=O)CC1` | 11.9% | -3.099% | -10.14% |
| `O=C(O)C(F)(F)F.[H][C@@]12C[C@H](C(=O)N3CCCC3)CN(C(=O)c3ccncc3)[C@]1([H])CCO2` | - | - | 13.07% |

The first 8 entries again:

{"smiles": "Cc1ccc(C(CCNCCCN(C)C)C2CCOC(C)(C)C2)cc1", "stereo": "stereo unspecified", "ClpP1P2": 12.21, "CoaBC": -0.4603}
{"smiles": "O=C(CC1CC1)N1CCn2cc(Cn3cccn3)nc2C1", "ClpP1P2": 1.355, "CoaBC": 1.5}
{"smiles": "O=C(NCCCn1ccnc1)C1CCC(=O)N1Cc1cccs1", "stereo": "stereo unspecified", "ClpP1P2": 10.63, "CoaBC": -1.119, "Toxoplasma": 18.87}
{"smiles": "CN(C)C(=O)CN1CCCC(c2nccnc2-c2cccc(Cl)c2)C1", "stereo": "stereo unspecified", "ClpP1P2": -11.44, "CoaBC": 7.022, "Toxoplasma": 1.48}
{"smiles": "[H][C@]12CC[C@](O)(CC1)C(CN1CCOCC1)N2Cc1ccc(F)cc1", "stereo": "stereo partly specified", "Toxoplasma": -23.24}
{"smiles": "COC1COC2(CCN(C(=O)c3cocn3)CC2)C1", "stereo": "stereo unspecified", "ClpP1P2": 5.726, "CoaBC": 11.27, "Toxoplasma": 10.16}
{"smiles": "Cc1cc(C(=O)NCC(C)C)c2c(C3CCCN3)noc2n1", "stereo": "stereo unspecified", "ClpP1P2": 0.3209, "CoaBC": -5.526, "Toxoplasma": 0.4264}
{"smiles": "O=S1(=O)C[C@@H]2[C@H](C1)N(Cc1ccc3ccccc3c1)CCN2CC1CC1", "ClpP1P2": -0.7142, "CoaBC": 2.571}